Assay results from article doi:10.1101/2020.10.05.326181.
These are yes or no findings as the source states them, for the method shown. Binding seen in cells or lysates may run through a third protein. Here binding means that the protein was enriched with, or labelled near, the bait; the list need not be complete.

Chains of the proteins cited; added tags and fusions are not shown. Lines headed by an entry give the natural chain unless they say otherwise; changes in a name come on top.
UniProt Q92547: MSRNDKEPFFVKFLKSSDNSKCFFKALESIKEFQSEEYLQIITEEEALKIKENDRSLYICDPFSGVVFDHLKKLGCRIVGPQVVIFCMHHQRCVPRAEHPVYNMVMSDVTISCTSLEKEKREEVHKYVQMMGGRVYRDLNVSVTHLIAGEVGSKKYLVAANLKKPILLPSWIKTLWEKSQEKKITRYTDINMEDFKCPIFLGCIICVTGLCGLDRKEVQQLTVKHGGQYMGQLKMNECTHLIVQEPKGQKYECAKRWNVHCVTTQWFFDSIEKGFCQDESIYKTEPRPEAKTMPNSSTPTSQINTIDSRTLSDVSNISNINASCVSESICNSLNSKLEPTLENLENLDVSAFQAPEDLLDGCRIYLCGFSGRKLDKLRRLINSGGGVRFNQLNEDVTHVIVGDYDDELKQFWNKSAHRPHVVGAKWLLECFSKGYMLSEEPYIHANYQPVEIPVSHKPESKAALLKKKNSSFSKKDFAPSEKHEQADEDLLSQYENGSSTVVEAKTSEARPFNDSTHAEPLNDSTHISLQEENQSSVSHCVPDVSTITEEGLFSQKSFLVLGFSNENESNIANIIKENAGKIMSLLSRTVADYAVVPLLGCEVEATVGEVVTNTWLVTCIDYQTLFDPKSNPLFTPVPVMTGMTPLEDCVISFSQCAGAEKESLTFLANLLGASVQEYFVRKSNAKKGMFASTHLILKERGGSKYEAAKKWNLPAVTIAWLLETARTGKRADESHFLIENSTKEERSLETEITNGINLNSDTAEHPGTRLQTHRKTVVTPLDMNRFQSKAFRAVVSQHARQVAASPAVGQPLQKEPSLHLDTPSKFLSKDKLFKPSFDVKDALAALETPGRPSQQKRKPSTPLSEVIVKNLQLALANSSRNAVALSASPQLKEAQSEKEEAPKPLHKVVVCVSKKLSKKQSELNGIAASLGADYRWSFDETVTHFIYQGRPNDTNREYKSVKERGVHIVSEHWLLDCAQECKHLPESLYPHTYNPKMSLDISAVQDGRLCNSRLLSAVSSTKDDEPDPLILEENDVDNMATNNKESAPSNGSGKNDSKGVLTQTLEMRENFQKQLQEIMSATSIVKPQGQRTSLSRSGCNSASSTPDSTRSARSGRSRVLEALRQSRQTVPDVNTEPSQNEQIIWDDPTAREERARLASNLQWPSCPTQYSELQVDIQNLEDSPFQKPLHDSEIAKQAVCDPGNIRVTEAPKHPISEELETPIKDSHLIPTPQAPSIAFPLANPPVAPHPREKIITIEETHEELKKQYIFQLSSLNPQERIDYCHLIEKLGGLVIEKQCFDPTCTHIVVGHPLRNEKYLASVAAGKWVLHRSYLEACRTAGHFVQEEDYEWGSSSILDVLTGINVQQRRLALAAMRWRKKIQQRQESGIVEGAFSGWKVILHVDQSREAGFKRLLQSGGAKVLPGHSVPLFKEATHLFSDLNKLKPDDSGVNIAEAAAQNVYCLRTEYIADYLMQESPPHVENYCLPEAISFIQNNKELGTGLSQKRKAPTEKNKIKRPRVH
UniProt Q13535: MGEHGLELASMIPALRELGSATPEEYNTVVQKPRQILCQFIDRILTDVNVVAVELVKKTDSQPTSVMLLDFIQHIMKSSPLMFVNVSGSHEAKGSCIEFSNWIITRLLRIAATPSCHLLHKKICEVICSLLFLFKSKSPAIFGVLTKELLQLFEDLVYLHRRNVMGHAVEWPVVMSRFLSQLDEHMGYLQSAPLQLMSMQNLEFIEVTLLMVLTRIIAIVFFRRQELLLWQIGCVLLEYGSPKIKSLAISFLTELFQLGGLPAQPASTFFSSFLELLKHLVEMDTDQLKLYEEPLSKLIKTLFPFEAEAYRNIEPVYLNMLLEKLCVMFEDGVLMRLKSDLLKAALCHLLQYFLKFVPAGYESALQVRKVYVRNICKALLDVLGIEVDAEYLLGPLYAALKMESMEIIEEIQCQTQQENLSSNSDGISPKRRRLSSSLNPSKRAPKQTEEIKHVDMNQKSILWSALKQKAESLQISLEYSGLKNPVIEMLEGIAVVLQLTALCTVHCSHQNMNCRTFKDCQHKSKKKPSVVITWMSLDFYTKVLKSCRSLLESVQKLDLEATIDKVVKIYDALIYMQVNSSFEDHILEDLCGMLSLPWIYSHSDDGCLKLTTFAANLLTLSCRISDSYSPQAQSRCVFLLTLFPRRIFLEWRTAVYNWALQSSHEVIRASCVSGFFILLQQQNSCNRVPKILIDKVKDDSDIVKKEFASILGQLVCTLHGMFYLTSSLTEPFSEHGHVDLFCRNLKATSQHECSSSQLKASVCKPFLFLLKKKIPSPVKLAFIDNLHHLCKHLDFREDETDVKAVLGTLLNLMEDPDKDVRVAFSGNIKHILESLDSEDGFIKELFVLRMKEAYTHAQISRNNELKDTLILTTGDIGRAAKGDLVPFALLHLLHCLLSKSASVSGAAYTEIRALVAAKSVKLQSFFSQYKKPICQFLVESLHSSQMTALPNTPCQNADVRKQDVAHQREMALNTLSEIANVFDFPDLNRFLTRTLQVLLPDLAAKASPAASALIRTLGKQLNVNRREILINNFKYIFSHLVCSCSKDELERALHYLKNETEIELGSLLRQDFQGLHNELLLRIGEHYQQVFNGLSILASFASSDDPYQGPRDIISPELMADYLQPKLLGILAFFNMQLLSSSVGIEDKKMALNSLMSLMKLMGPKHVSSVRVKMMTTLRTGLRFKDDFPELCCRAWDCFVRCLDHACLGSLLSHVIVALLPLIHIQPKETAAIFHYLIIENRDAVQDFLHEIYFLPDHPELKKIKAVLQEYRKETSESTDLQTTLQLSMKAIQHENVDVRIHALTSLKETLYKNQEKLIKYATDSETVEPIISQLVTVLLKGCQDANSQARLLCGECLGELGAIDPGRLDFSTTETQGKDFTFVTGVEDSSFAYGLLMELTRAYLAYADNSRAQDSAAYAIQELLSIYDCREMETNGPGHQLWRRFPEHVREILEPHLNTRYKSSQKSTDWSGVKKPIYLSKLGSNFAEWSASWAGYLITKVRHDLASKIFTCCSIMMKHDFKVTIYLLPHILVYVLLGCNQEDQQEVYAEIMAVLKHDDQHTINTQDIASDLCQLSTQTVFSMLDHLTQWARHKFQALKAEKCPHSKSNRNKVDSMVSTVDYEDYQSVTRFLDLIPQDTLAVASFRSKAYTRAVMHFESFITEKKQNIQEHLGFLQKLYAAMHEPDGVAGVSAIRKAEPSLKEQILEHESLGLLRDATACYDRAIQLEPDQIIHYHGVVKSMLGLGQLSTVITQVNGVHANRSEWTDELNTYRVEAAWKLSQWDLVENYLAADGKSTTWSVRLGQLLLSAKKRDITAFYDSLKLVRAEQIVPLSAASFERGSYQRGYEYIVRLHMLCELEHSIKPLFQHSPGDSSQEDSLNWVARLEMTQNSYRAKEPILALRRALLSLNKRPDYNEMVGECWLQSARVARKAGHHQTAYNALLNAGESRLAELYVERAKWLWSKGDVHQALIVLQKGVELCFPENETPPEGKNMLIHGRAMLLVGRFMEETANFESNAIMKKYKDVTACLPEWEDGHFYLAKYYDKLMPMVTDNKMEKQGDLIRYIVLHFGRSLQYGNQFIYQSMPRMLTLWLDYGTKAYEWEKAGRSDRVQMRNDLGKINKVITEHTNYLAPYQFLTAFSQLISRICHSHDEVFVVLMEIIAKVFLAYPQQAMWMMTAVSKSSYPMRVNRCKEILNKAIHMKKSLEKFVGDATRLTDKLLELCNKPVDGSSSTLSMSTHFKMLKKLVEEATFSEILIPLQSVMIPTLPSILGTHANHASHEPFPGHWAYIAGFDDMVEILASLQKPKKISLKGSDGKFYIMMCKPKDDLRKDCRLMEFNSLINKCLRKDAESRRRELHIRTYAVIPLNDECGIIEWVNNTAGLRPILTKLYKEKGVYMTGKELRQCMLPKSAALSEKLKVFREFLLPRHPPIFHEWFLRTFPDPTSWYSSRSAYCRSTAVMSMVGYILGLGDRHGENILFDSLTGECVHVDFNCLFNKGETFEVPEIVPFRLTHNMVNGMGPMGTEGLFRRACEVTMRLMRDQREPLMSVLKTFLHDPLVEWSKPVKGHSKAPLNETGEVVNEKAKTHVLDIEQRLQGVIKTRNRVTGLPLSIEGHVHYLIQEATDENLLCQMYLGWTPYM
UniProt P54132: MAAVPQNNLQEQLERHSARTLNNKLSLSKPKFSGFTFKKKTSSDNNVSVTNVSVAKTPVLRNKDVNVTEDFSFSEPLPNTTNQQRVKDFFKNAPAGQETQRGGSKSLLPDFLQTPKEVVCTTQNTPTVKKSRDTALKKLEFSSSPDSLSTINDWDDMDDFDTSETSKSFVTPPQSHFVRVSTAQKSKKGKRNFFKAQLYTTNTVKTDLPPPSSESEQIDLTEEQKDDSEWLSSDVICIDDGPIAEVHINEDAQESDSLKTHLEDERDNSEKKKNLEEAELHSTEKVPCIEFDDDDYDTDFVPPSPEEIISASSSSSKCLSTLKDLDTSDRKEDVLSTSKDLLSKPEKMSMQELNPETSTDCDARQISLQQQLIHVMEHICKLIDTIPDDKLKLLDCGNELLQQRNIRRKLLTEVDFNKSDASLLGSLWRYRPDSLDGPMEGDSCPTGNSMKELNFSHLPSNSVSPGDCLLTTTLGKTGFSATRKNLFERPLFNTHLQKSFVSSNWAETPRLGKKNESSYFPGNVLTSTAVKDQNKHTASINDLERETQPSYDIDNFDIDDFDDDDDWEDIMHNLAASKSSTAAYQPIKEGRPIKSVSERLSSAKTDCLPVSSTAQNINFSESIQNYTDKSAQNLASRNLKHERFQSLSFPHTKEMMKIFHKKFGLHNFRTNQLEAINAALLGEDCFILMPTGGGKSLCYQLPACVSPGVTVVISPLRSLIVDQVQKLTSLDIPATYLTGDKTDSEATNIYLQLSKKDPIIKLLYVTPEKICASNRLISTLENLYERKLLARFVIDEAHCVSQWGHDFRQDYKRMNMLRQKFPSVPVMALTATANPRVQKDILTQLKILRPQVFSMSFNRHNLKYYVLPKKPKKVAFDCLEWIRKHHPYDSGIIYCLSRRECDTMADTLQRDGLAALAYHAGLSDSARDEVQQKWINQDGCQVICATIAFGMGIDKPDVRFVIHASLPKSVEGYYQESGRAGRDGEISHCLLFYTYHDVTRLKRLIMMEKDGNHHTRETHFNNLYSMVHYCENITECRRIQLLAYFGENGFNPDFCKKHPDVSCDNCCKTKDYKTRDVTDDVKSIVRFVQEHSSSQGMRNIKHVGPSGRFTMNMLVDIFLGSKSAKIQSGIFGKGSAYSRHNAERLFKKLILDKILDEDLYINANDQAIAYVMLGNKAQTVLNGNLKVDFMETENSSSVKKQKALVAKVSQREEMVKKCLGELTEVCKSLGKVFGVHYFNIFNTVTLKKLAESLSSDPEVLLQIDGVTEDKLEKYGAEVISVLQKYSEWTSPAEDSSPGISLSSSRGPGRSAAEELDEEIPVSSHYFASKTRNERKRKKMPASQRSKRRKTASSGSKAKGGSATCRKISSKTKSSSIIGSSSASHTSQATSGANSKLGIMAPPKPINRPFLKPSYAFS
UniProt O60934: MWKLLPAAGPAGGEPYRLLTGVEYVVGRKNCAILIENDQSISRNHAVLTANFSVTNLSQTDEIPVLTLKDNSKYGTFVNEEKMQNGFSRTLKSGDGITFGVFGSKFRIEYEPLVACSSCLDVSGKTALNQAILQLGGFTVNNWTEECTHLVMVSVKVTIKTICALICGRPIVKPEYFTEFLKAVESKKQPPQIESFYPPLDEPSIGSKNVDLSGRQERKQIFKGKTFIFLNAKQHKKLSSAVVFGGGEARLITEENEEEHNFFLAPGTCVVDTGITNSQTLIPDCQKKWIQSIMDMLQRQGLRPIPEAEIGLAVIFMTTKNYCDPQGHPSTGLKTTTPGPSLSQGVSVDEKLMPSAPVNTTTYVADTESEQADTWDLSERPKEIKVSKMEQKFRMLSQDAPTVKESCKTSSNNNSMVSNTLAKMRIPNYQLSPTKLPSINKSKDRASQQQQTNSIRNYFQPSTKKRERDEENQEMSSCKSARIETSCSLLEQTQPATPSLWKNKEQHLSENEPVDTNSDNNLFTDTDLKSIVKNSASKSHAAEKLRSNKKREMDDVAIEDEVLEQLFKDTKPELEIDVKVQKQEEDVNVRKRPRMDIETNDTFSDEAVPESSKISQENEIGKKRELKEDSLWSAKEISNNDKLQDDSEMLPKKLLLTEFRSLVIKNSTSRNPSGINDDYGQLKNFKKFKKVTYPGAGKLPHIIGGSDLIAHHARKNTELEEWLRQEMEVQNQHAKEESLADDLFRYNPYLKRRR

Tests used:
Experiment in all cases: proximity labelling
[1] = target: Flag-BirA*-TopBP1 WT (human) (UniProt Q92547)
[2] = target: opto-TopBP1 S1138D (TurboID-TopBP1 S1138D-mCherry-Cry2) (human) (UniProt Q92547)
[3] = target: opto-TopBP1 WT (TurboID-TopBP1-mCherry-Cry2) (human) (UniProt Q92547)

Row | Substance | binding [1] | binding [2] | binding [3]
1 | ATR (from UniProt Q13535 1-2644) | binds |  | 
2 | BLM (from UniProt P54132 1-1417) | binds |  | 
3 | NBS1 (from UniProt O60934 1-754) | binds |  | 
4 | phospho ATR (Thr1989) (from UniProt Q13535 1-2644) |  | binds | binds
